Laboratory results: patent US20250297004A1, “NECTIN-4 BINDING AGENTS” (INNATE PHARMA, priority 2022, published 2025)
Residue numbers refer to the chain shown, from its start. No constants are given. Whether binding was seen depends on the method and setting. Some results given as binding are weak or reduced against the parent protein; the word gives no strength.

T1: human Nectin-4 expressed on cells (human, UniProt Q96NY8 32-510)
T1 sequence: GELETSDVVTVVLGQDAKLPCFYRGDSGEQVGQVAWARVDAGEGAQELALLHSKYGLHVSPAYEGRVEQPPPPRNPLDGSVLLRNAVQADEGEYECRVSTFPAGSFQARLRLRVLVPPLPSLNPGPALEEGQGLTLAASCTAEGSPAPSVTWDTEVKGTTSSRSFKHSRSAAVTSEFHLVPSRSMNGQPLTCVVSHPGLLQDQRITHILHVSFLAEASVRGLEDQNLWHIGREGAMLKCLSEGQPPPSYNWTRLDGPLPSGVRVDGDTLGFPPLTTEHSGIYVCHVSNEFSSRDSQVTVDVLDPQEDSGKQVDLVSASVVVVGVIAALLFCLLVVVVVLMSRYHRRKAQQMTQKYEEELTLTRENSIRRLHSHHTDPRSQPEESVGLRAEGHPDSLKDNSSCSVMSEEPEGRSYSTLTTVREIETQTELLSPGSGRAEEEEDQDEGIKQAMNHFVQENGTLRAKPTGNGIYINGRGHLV

B1: chimeric parental 5E7 antibody (antibody, V domains shown)
VH: QVQLQQPGAELVKPGASVKLSCKASGYIFTSYWMHWVKQRPGQGLEWIGEIDPSDSYTNYNQKFKGKATLTLDKSSSTTYMQLSSLTSEDSAVYYCVRGYGNYGDYWGQGTTLTVSS
VL: DVVMTQAAFSNPVTLGTSASISCRSSKSLLHSNGITYLYWYLQKPGQSPQLLIYQMSNLASGVPDRFSSSGSGTDFTLRISRVEAEDVGVYYCAQNLELPWTFGGGTKLEIKR
notes: Chimeric antibody, murine variable domains with human constant regions; also called ch5E7; CHG1-M-1N4-5E7
B2: H4L1 (antibody, human IgG1, V domains shown)
VH: QVQLVQSGAEVKKPGASVKVSCKASGYIFTSYWMHWVKQAPGQGLEWMGEIDPSDSYTNYNQKFKGRVTMTLDKSTSTTYMELSSLRSEDTAVYYCARGYGNYGDYWGQGTLVTVSS
VL: DVVMTQSPLSLPVTPGEPASISCRSSKSLLHSNGITYLYWYLQKPGQSPQLLIYQMSNLASGVPDRFSSSGSGTDFTLKISRVEAEDVGVYYCAQNLELPWTFGGGTKVEIK
notes: human IgG1 isotype
B3: H5L3 (antibody, human IgG1, kappa, V domains shown)
VH: B2 VH with A40R
VL: B1 VL with A7S, F9L, L15P, T17E, S18P, R79K, L109V
notes: Tested as human IgG1
B4: H4L2 (antibody, human IgG1, V domains shown)
VH: B2 VH
VL: B2 VL with L11N
notes: human IgG1 isotype
B5: H6L2 (antibody, human IgG1, V domains shown)
VH: B2 VH with A40R, M48I
VL: B2 VL with L11N
notes: human IgG1 isotype
B6: H5L1 (antibody, human IgG1, V domains shown)
VH: B2 VH with A40R
VL: B2 VL
notes: human IgG1 isotype
B7: H0L0 (antibody, human IgG1, V domains shown)
VH: B2 VH with I28T, K38R, L72R, K74T, T79V
VL: B2 VL with V2I, S69G
notes: human IgG1 isotype; also called HOLO; humanized 5E7 variant H0L0
B8: H3L2 (antibody, human IgG1, V domains shown)
VH: B2 VH with K38R
VL: B2 VL with L11N
notes: human IgG1 isotype
B9: H5L2 (antibody, human IgG1, V domains shown)
VH: B2 VH with A40R
VL: B2 VL with L11N
notes: human IgG1 isotype
B10: H7L2 (antibody, human IgG1, V domains shown)
VH: B2 VH with A40R, M48I, M70L
VL: B2 VL with L11N
notes: human IgG1 isotype
B11: H3L3 (antibody, human IgG1, V domains shown)
VH: B2 VH with K38R
VL: B2 VL with P8A, L11N
notes: human IgG1 isotype
B12: H1L0 (antibody, human IgG1, V domains shown)
VH: B2 VH with I28T, K38R, K74T
VL: B2 VL with V2I, S69G
notes: human IgG1 isotype
B13: H3L0 (antibody, human IgG1, V domains shown)
VH: B2 VH with K38R
VL: B2 VL with V2I, S69G
notes: human IgG1 isotype
B14: H2L0 (antibody, human IgG1, V domains shown)
VH: B2 VH with I28T, K38R
VL: B2 VL with V2I, S69G
notes: human IgG1 isotype
B15: H6L3 (antibody, human IgG1, V domains shown)
VH: B2 VH with A40R, M48I
VL: B2 VL with P8A, L11N
notes: human IgG1 isotype
B16: H6L1 (antibody, human IgG1, V domains shown)
VH: B2 VH with A40R, M48I
VL: B2 VL
notes: human IgG1 isotype
B17: H8L1 (antibody, human IgG1, V domains shown)
VH: B2 VH with M48I
VL: B2 VL
notes: human IgG1 isotype
B18: H3L1 (antibody, human IgG1, V domains shown)
VH: B2 VH with K38R
VL: B2 VL
notes: human IgG1 isotype
B19: H4L3 (antibody, human IgG1, V domains shown)
VH: B2 VH
VL: B2 VL with P8A, L11N
notes: human IgG1 isotype
B20: H7L3 (antibody, human IgG1, V domains shown)
VH: B2 VH with A40R, M48I, M70L
VL: B2 VL with P8A, L11N
notes: human IgG1 isotype
B21: H7L1 (antibody, human IgG1, V domains shown)
VH: B2 VH with A40R, M48I, M70L
VL: B2 VL
notes: human IgG1 isotype

Target: T1, human Nectin-4 expressed on cells
Assay: flow cytometry on cells expressing Nectin-4

Row | binding | Binder
1 | binds | B1

Target: T1, human Nectin-4 expressed on cells
Assay: flow cytometry on SUM190 cells

Row | binding | Binder
2 | binds | B2
3 | binds | B3
4 | binds | B4
5 | binds | B5
6 | binds | B6
7 | binds | B7
8 | binds | B8
9 | binds | B9
10 | binds | B10
11 | binds | B11
12 | binds | B12
13 | binds | B13
14 | binds | B14
15 | binds | B15
16 | binds | B16
17 | binds | B17
18 | binds | B18
19 | binds | B19
20 | binds | B20
21 | binds | B21
